Measurements: publication PMC12745361, “Dysadherin/YAP axis fuels stem plasticity and immune escape in liver cancer” (Signal Transduction and Targeted Therapy, 2025)
Results are given in words; binding and its absence hold for the method and conditions named. Binding seen in cells or lysates may run through a third protein. Some results given as binding are weak or reduced against the parent protein; the word gives no strength.

Protein sequences, listed by entry. Tags and fused reporters are not part of them. Residues count along the entry.
UniProt P02751, residues 32-2477: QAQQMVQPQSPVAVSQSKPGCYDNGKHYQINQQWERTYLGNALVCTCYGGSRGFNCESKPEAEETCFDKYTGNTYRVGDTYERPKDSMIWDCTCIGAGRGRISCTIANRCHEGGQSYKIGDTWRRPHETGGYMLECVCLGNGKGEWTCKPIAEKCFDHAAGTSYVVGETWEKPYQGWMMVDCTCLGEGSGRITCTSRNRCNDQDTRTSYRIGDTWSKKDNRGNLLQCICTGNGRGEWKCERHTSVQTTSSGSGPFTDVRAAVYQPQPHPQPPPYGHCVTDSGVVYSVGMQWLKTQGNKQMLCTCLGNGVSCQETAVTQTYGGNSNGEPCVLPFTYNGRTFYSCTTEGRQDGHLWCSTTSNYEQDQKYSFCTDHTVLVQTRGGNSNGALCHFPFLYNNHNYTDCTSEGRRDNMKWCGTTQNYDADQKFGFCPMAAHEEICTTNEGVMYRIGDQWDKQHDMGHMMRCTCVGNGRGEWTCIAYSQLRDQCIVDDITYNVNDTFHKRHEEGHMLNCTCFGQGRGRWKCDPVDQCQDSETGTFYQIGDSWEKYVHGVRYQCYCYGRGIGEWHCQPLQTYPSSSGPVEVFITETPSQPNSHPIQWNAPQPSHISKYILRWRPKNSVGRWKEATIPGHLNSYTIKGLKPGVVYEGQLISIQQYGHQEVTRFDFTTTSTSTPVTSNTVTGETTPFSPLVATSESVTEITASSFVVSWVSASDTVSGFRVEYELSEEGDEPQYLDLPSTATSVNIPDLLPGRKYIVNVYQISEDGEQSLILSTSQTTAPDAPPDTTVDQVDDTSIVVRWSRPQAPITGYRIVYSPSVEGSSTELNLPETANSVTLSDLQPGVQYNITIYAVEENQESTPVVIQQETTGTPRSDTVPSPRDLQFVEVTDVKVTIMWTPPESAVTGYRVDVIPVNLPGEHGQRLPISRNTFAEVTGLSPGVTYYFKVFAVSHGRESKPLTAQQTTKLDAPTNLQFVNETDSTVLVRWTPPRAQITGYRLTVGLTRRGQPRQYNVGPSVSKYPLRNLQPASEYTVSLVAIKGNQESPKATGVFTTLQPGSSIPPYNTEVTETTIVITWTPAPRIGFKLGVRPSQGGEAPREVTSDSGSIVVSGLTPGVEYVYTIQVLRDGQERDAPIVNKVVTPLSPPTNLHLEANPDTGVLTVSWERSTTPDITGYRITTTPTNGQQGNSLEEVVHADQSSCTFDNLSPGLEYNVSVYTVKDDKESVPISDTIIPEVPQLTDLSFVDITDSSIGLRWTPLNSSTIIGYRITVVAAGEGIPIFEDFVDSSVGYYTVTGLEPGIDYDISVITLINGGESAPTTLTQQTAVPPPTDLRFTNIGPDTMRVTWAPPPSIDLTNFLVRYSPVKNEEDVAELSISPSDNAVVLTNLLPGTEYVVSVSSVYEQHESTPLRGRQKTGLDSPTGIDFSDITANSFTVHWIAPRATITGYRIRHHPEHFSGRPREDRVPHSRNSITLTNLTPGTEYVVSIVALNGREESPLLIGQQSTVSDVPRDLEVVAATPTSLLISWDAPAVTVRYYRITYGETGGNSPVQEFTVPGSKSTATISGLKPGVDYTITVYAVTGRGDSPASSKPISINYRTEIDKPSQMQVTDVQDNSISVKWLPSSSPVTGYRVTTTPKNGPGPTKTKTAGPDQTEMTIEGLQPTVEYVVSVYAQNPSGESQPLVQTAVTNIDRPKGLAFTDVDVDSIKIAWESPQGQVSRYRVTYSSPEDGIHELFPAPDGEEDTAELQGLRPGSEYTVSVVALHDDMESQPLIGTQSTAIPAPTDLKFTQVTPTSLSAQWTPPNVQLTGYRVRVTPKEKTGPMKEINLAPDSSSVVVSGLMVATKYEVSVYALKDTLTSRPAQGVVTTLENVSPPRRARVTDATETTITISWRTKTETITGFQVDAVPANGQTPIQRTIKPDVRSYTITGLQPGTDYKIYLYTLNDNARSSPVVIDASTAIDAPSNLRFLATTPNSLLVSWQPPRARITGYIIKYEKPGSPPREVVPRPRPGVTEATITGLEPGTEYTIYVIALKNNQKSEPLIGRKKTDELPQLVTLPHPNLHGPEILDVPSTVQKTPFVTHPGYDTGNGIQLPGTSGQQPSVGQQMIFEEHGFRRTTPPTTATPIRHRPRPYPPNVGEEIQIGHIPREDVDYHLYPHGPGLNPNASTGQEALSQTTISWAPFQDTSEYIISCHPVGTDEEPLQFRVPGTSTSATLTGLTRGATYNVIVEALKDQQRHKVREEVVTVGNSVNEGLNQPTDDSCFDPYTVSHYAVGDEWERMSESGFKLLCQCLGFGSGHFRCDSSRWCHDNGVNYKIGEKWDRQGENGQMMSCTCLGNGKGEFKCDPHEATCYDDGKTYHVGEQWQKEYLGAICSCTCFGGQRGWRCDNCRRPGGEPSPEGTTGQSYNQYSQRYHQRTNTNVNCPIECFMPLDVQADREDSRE

Molecular target: T1, dysadherin (human (endogenous in HCC cells)) (UniProt Q96DB9)
T1 sequence: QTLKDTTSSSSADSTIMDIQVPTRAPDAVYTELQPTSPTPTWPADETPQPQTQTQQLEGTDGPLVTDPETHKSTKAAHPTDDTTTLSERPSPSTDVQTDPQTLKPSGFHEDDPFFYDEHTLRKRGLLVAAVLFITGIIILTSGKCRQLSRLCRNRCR
Experiment: co-IP; coimmunoprecipitation of endogenous proteins in the HCC model; cell line and precipitated protein not given

binding: binds
Substance: fibronectin (from UniProt P02751 32-2477)
